# In the supplement of paper PMC8732350:
# Values joined by “and” are separate entries in the source; they are usually repeats but may differ in a detail not shown here. Equal entries are not always repeated. Structures can show the parent of a compound that is named as a salt. ± gives the standard deviation of the averaged measurements. Some of the results follow. Single values are uncertain here, since repeats match poorly.
# Test system: A549
# Assay: surface PD-L1 immunofluorescence intensity relative to IFN-gamma-only control (ratio); higher = more PD-L1 expression
# Conditions: 10 µM; exposure time 24 h; IFN-gamma 100 ng/mL
row,Structure (SMILES),surface PD-L1 immunofluorescence intensity
1,CCCCCCCCCCCCCCSCC(=O)O [Tetradecylthioacetic acid],1.02
2,O=C(O)CN(CCN(CC(=O)O)CC(=O)O)CCN(CC(=O)O)CC(=O)O [Pentetic acid],1.05
3,CC(C)(CO)Cc1cc(C(C)(C)C)c(O)c(C(C)(C)C)c1,1.06
4,CCc1cc2c(c(CC)n1)CCC(=O)N2Cc1ccc(-c2ccccc2-c2nn[nH]n2)cc1 [ZD 7155 hydrochloride],1.08
5,O=C(/C=C/C=C/c1ccc2c(c1)OCO2)N1CCCCC1 [Piperine (1-Piperoylpiperidine)],1.1
6,O=c1c2ccccc2nc2n1CCc1c-2[nH]c2ccccc12 [Rutaecarpine (Rutecarpine)],1.15
7,CN(C)c1ccccc1CN1CCCN(Cc2ccccc2N(C)C)C1c1ccncc1,0.957
8,OC[C@H]1O[C@@H](n2cnc3c2N=CNC[C@H]3O)C[C@@H]1O [Pentostatin],0.961
9,CCC(=O)OCC(=O)[C@@]1(OC(=O)CC)[C@@H](C)C[C@H]2[C@@H]3CCC4=CC(=O)C=C[C@]4(C)[C@@]3(Cl)[C@@H](O)C[C@@]21C [Beclomethasone dipropionate],0.799
10,CCC(=O)OCC(=O)[C@@]1(OC(=O)CC)[C@@H](C)C[C@H]2[C@@H]3CCC4=CC(=O)C=C[C@]4(C)[C@@]3(Cl)[C@@H](O)C[C@@]21C [Beclomethasone dipropionate (Beclometasone dipropionate)],0.808
11,CC(C)=CCC/C(C)=C/CC/C(C)=C/CC/C(C)=C/CO [Geranylgeraniol],1.03
12,Oc1cc2c(c(Cl)c1O)CCNCC2c1ccccc1 (stereo not drawn),1.02
13,CCN(CC)Cc1cc(Nc2ccnc3cc(Cl)ccc23)ccc1O [Amodiaquin dihydrochloride dihydrate],1.04
14,COc1ccccc1N1CCN(CCCNc2cc(=O)n(C)c(=O)n2C)CC1 [Urapidil hydrochloride],0.97 ± 0.026
15,CN/C(=N\c1ccc(C2=NNC(=O)CC2C)cc1)NC#N (stereo not drawn) [Siguazodan],0.994
16,COc1nc(N)nc2c1ncn2[C@@H]1O[C@H](CO)[C@@H](O)[C@@H]1O [Nelarabine (Arranon)],0.992
17,OC[C@H]1O[C@H](O[C@H]2O[C@H](CO)[C@@H](O)[C@H](O)[C@H]2O)[C@H](O)[C@@H](O)[C@@H]1O [Trehalose],0.963
18,"CCN(CC)CCOc1ccc(C(=C(Cl)c2ccccc2)c2ccccc2)cc1 [Clomiphene citrate (Z,E)]",1
19,CN(C)[C@@H]1C(O)=C(C(=O)NCNCCCC[C@H](N)C(=O)O)C(=O)[C@@]2(O)C(O)=C3C(=O)c4c(O)cccc4[C@@](C)(O)[C@H]3C[C@@H]12 [Lymecycline],1.02
20,CCCCCOC(=O)Nc1nc(=O)n([C@@H]2O[C@H](C)[C@@H](O)[C@H]2O)cc1F [Capecitabine (Xeloda)],1.12
21,CN1CCOC(c2ccccc2)c2ccccc2C1 (stereo not drawn) [Nefopam hydrochloride],1.05
22,CN1CCC(=C2c3ccccc3CCc3sccc32)CC1 [Pizotifen malate],0.944
23,Cc1cnc(C(=O)NCCc2ccc(S(=O)(=O)NC(=O)NC3CCCCC3)cc2)cn1 [Glipizide],0.967
24,O=C(Cc1ccccc1)Nc1nc2ccc(Cl)cc2c2nc(-c3ccco3)nn12,0.99

# Retrieved one by one from the entries so far, 3 records:
row,Structure (SMILES),surface PD-L1 immunofluorescence intensity
18,"CCN(CC)CCOc1ccc(C(=C(Cl)c2ccccc2)c2ccccc2)cc1 [Clomiphene citrate (Z,E)]",1
3,CC(C)(CO)Cc1cc(C(C)(C)C)c(O)c(C(C)(C)C)c1,1.06
13,CCN(CC)Cc1cc(Nc2ccnc3cc(Cl)ccc23)ccc1O [Amodiaquin dihydrochloride dihydrate],1.04

# (list continues)

row,Structure (SMILES),surface PD-L1 immunofluorescence intensity
1,CC(C)NC[C@H](O)COc1cccc2[nH]ccc12 [(S)-(-)-Pindolol],0.995
2,c1cc2c3c(c1)c1c(n3CCNC2)CCCC1 [WAY 629 hydrochloride],1.01
3,O=C1[C@H](CC[C@H](O)c2ccc(F)cc2)[C@@H](c2ccc(O)cc2)N1c1ccc(F)cc1 [Ezetimibe (Zetia)],1.03
4,COc1ccccc1N1CCN(CCCCNC(=O)c2ccc3ccccc3c2)CC1,0.79
5,CCC1NC(=O)c2cc(S(N)(=O)=O)c(Cl)cc2N1 (stereo not drawn) [Quinethazone],1.03
6,CC(O)(P(=O)(O)O)P(=O)(O)O [Etidronate (Didronel)],1.04
7,"CC(O)(P(=O)(O)O)P(=O)(O)O [Etidronic acid, disodium salt]",1.08
8,COC(=O)C1=C(C)NC(C)=C(C(=O)OCC(C)C)C1c1ccccc1[N+](=O)[O-] (stereo not drawn) [Nisoldipine (Sular)],0.972
9,COC(=O)C1=C(C)NC(C)=C(C(=O)OCC(C)C)C1c1ccccc1[N+](=O)[O-] (stereo not drawn) [Nisoldipine],0.923
10,Oc1cc(O)c(Cl)cn1 [Gimeracil],0.94
11,CC1(C)CCC(C)(C)c2cc(C(=O)Nc3ccc(C(=O)O)cc3)ccc21,0.93 and 1.09
12,CC1(C)CNc2cc(NC(=O)c3cccnc3NCc3ccncc3)ccc21 [Motesanib Diphosphate],1.07
13,COC(=O)C1=C(C)NC(C)=C(C(=O)OCCN(C)Cc2ccccc2)C1c1cccc([N+](=O)[O-])c1 (stereo not drawn) [Nicardipine hydrochloride],0.881
14,OC[C@H]1O[C@@H](c2ccc(Cl)c(Cc3ccc(O[C@H]4CCOC4)cc3)c2)[C@H](O)[C@@H](O)[C@@H]1O,1.11
15,CC(=O)N1CCN(C)CC1 [1-Acetyl-4-methylpiperazine hydrochloride],1.11
16,CN1CCN(c2c(F)cc3c(=O)c(C(=O)O)cn4c3c2SCC4)CC1 [Rufloxacin],1.16
17,CCCC(=O)[O-].[Na+] [Sodium butyrate],1.01
18,CCOC(=O)C1=C(C)NC(C)=C(C(=O)OCC)C1 [Diludin],0.906
19,CNCc1cc(-c2ccccc2F)n(S(=O)(=O)c2cccnc2)c1,0.957
20,O=C1C(O)=C([C@H]2CC[C@H](c3ccc(Cl)cc3)CC2)C(=O)c2ccccc21 [Atovaquone],0.992
21,"CC(C)NCC(O)c1ccc(O)c(O)c1 (single isomer, unassigned; (-)) [(-)-Isoproterenol hydrochloride]",0.986
22,Cc1ccccc1C(OCCN(C)C)c1ccccc1 (stereo not drawn) [Orphenadrine hydrochloride],0.845
23,O=C1CCc2ccc(OCCCCN3CCN(c4cccc(Cl)c4Cl)CC3)cc2N1 [Aripiprazole],1.09
24,CCCCCCCCCCCCCCCC(=O)C(F)(F)F,0.957
